Results deposited as PubChem BioAssay AID1117269 (University of Michigan, 2014)

Aim: 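Kinases whose silencing alters a TGF-beta responsive luciferase reporter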 (primary screen)
Cell system: human A549 lung cancer and 1833 breast cancer (MDA-MB-231-derived) cell lines carrying a stable BTR luciferase reporter
Knock-down reagent: siRNA pool against human genes
Duration: 72 h after transfection, then 1 h TGF-beta before the read
Conditions: TGF-beta 10 ng/mL added one hour before luciferin and read-out
Read-out: 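Live-cell BTR luciferase signal at 72 h after transfection and 1 h of TGF-beta at 10 ng/mL, fold versus scrambled siRNA, triplicate mean for each line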
Direction: fold over scrambled siRNA, A549 and fold over scrambled siRNA, 1833: higher = more reporter light, weaker TGF-beta receptor signalling
Rule for the call: 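Hit in either line counts as active; per-line hits lie above an upper limit from quartiles of averaged log fold values, in plate and screen-wide analyses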
Meaning of the calls: active = hit in at least one line; inactive = hit in neither line
Shown is one part, drawn at random, of 714 reagents tested. In the full data, 49 (6.9%) got an active call. 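Active means a hit in at least one line; per-line hit columns show which; some siRNA pools appear more than once.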 No sequences are given here. The record does not give: the amount of reagent.

gene knocked down | PubChem SID | fold over scrambled siRNA, A549 | fold over scrambled siRNA, 1833 | hit in A549 | hit in 1833 | outcome
STKLD1 (GeneID 169436) | SID152151495 | 0.952 | 1.43 | not a hit in A549 | not a hit in 1833 | inactive
CDK5R1 (GeneID 8851) | SID135621688 | 0.444 | 1.37 | not a hit in A549 | not a hit in 1833 | inactive
MAST1 (GeneID 22983) | SID135620865 | 1.3 | 4.11 | not a hit in A549 | not a hit in 1833 | inactive
PIP4K2B (GeneID 8396) | SID152147971 | 2.43 | 3.51 | not a hit in A549 | not a hit in 1833 | inactive
PBK (GeneID 55872) | SID56479058 | 4.29 | 2.15 | not a hit in A549 | not a hit in 1833 | inactive
TNIK (GeneID 23043) | SID152153870 | 3.76 | 5.87 | not a hit in A549 | not a hit in 1833 | inactive
CIT (GeneID 11113) | SID56478810 | 0.875 | 11.5 | not a hit in A549 | hit in 1833 | –
PFKP (GeneID 5214) | SID56479236 | 4.58 | 3.6 | not a hit in A549 | not a hit in 1833 | inactive
CRIM1 (GeneID 51232) | SID56479010 | 3.24 | 3.6 | not a hit in A549 | not a hit in 1833 | inactive
RSKR (GeneID 124923) | SID56478814 | 1.25 | 3.5 | not a hit in A549 | not a hit in 1833 | inactive
CAMK1D (GeneID 57118) | SID152153083 | 1.86 | 1.34 | not a hit in A549 | not a hit in 1833 | inactive
UCK1 (GeneID 83549) | SID56478768 | 1.71 | 7.98 | not a hit in A549 | not a hit in 1833 | inactive
UHMK1 (GeneID 127933) | SID152150381 | 2.47 | 6.29 | not a hit in A549 | not a hit in 1833 | inactive
CDC42BPG (GeneID 55561) | SID135621430 | 2.72 | 3.14 | not a hit in A549 | not a hit in 1833 | inactive
BRAF (GeneID 673) | SID152153735 | 1.1 | 1.29 | not a hit in A549 | not a hit in 1833 | inactive
EIF2AK2 (GeneID 5610) | SID56478676 | 3.67 | 2.84 | not a hit in A549 | not a hit in 1833 | inactive
ALPK3 (GeneID 57538) | SID152152513 | 3.71 | 5.76 | not a hit in A549 | not a hit in 1833 | inactive
LIMK1 (GeneID 3984) | SID135621436 | 3 | 5.66 | not a hit in A549 | not a hit in 1833 | inactive
CDK5 (GeneID 1020) | SID56478599 | 1.14 | 1.41 | not a hit in A549 | not a hit in 1833 | inactive
SMG1 (GeneID 23049) | SID152155844 | 3.81 | 6.9 | not a hit in A549 | not a hit in 1833 | inactive
MOS (GeneID 4342) | SID56478732 | 1.52 | 1.76 | not a hit in A549 | not a hit in 1833 | inactive
MUSK (GeneID 4593) | SID56478536 | 0.883 | 2.53 | not a hit in A549 | not a hit in 1833 | inactive
CKB (GeneID 1152) | SID56479084 | 3.57 | 6.66 | not a hit in A549 | not a hit in 1833 | inactive
RPS6KA1 (GeneID 6195) | SID152152227 | 2.84 | 3.04 | not a hit in A549 | not a hit in 1833 | inactive
EIF2AK1 (GeneID 27102) | SID56478942 | 3.92 | 6.38 | not a hit in A549 | not a hit in 1833 | inactive
PAPSS1 (GeneID 9061) | SID56479195 | 3.14 | 6.52 | not a hit in A549 | not a hit in 1833 | inactive
MAP4K1 (GeneID 11184) | SID56478699 | 0.798 | 1.74 | not a hit in A549 | not a hit in 1833 | inactive
ABL1 (GeneID 25) | SID135620610 | 1.61 | 2.24 | not a hit in A549 | not a hit in 1833 | inactive
MKNK2 (GeneID 2872) | SID152150791 | 1.06 | 2.2 | not a hit in A549 | not a hit in 1833 | inactive
MPP1 (GeneID 4354) | SID56479235 | 5.15 | 2.81 | not a hit in A549 | not a hit in 1833 | inactive
ABL2 (GeneID 27) | SID152153611 | 3.43 | 6.97 | not a hit in A549 | not a hit in 1833 | inactive
PHKG2 (GeneID 5261) | SID135620902 | 3.57 | 6.76 | not a hit in A549 | not a hit in 1833 | inactive
KCNH8 (GeneID 131096) | SID134311656 | 3.24 | 6.1 | not a hit in A549 | not a hit in 1833 | inactive
TJP2 (GeneID 9414) | SID135621862 | 1.63 | 2.12 | not a hit in A549 | not a hit in 1833 | inactive
FGFR4 (GeneID 2264) | SID56478514 | 1.48 | 6.25 | not a hit in A549 | not a hit in 1833 | inactive
ITPKA (GeneID 3706) | SID152154114 | 1.66 | 4.9 | not a hit in A549 | not a hit in 1833 | inactive
VRK2 (GeneID 7444) | SID152152279 | 1.1 | 1.49 | not a hit in A549 | not a hit in 1833 | inactive
DDR2 (GeneID 4921) | SID135620612 | 1.69 | 7.07 | not a hit in A549 | not a hit in 1833 | inactive
SRC (GeneID 6714) | SID56478553 | 4.33 | 1.93 | not a hit in A549 | not a hit in 1833 | inactive
AURKC (GeneID 6795) | SID152150186 | 0.952 | 1.4 | not a hit in A549 | not a hit in 1833 | inactive
CLK3 (GeneID 1198) | SID56478875 | 2.4 | 2.44 | not a hit in A549 | not a hit in 1833 | inactive
BRD4 (GeneID 23476) | SID152154839 | 3.72 | 28.3 | not a hit in A549 | hit in 1833 | –
MAP4K2 (GeneID 5871) | SID56478700 | 5.1 | 4.29 | not a hit in A549 | not a hit in 1833 | inactive
PIK3R1 (GeneID 5295) | SID135620606 | 1.76 | 2.62 | not a hit in A549 | not a hit in 1833 | inactive
PI4KA (GeneID 5297) | SID135621251 | 1.81 | 6.23 | not a hit in A549 | not a hit in 1833 | inactive
PIM2 (GeneID 11040) | SID56479034 | 3.33 | 6.12 | not a hit in A549 | not a hit in 1833 | inactive
TESK2 (GeneID 10420) | SID135620925 | 3.16 | 7.33 | not a hit in A549 | not a hit in 1833 | inactive
EPHB3 (GeneID 2049) | SID56478503 | 1.29 | 3.81 | not a hit in A549 | not a hit in 1833 | inactive
PRKAR1A (GeneID 5573) | SID135621428 | 1.05 | 2.33 | not a hit in A549 | not a hit in 1833 | inactive
SRP72 (GeneID 6731) | SID135623816 | 1.89 | 6.79 | not a hit in A549 | not a hit in 1833 | inactive
ULK3 (GeneID 25989) | SID152148646 | 1 | 1.93 | not a hit in A549 | not a hit in 1833 | inactive
PANK4 (GeneID 55229) | SID56479123 | 1.33 | 2.24 | not a hit in A549 | not a hit in 1833 | inactive
PDPK1 (GeneID 5170) | SID135620604 | 1.81 | 1.05 | not a hit in A549 | not a hit in 1833 | inactive
MAP3K8 (GeneID 1326) | SID56478664 | 2.7 | 1.52 | not a hit in A549 | not a hit in 1833 | inactive
XYLB (GeneID 9942) | SID152153831 | 1.38 | 11 | not a hit in A549 | hit in 1833 | –
PRKACG (GeneID 5568) | SID56478826 | 2.05 | 5.48 | not a hit in A549 | not a hit in 1833 | inactive
PRKAG2 (GeneID 51422) | SID135621825 | 1.7 | 3.39 | not a hit in A549 | not a hit in 1833 | inactive
AK4 (GeneID 205) | SID152149659 | 2.68 | 2.73 | not a hit in A549 | not a hit in 1833 | inactive
GRK6 (GeneID 2870) | SID135620853 | 3.14 | 6.59 | not a hit in A549 | not a hit in 1833 | inactive
PAK5 (GeneID 57144) | SID56478749 | 2.68 | 1.67 | not a hit in A549 | not a hit in 1833 | inactive
STK38 (GeneID 11329) | SID152149792 | 2.48 | 1.75 | not a hit in A549 | not a hit in 1833 | inactive
PDIK1L (GeneID 149420) | SID152147170 | 3.01 | 1.29 | not a hit in A549 | not a hit in 1833 | inactive
NEK8 (GeneID 284086) | SID56478901 | 0.86 | 2.4 | not a hit in A549 | not a hit in 1833 | inactive
CDK1 (GeneID 983) | SID56478584 | 1.43 | 4.44 | not a hit in A549 | not a hit in 1833 | inactive
MAP4K3 (GeneID 8491) | SID135620707 | 0.905 | 1.57 | not a hit in A549 | not a hit in 1833 | inactive
PIP4K2C (GeneID 79837) | SID56478804 | 1.49 | 3 | not a hit in A549 | not a hit in 1833 | inactive
PAK6 (GeneID 56924) | SID56478794 | 2.04 | 4.57 | not a hit in A549 | not a hit in 1833 | inactive
CAMK4 (GeneID 814) | SID56478933 | 3.65 | 3.22 | not a hit in A549 | not a hit in 1833 | inactive
ARAF (GeneID 369) | SID152151166 | 1.98 | 2.61 | not a hit in A549 | not a hit in 1833 | inactive
IRAK2 (GeneID 3656) | SID152151590 | 0.771 | 2.33 | not a hit in A549 | not a hit in 1833 | inactive
DGKQ (GeneID 1609) | SID56478983 | 8.35 | 6.67 | hit in A549 | not a hit in 1833 | active
CAMK2A (GeneID 815) | SID56478931 | 1.1 | 5.05 | not a hit in A549 | not a hit in 1833 | inactive
CRKL (GeneID 1399) | SID152150429 | 5.71 | 6.1 | hit in A549 | not a hit in 1833 | active

Laid out differently: results already given
| gene knocked down | PubChem SID | fold over scrambled siRNA, A549 | fold over scrambled siRNA, 1833 | hit in A549 | hit in 1833 | outcome |
| --- | --- | --- | --- | --- | --- | --- |
| FGFR4 (GeneID 2264) | SID56478514 | 1.48 | 6.25 | not a hit in A549 | not a hit in 1833 | inactive |
| ITPKA (GeneID 3706) | SID152154114 | 1.66 | 4.9 | not a hit in A549 | not a hit in 1833 | inactive |
| VRK2 (GeneID 7444) | SID152152279 | 1.1 | 1.49 | not a hit in A549 | not a hit in 1833 | inactive |
| DDR2 (GeneID 4921) | SID135620612 | 1.69 | 7.07 | not a hit in A549 | not a hit in 1833 | inactive |
| SRC (GeneID 6714) | SID56478553 | 4.33 | 1.93 | not a hit in A549 | not a hit in 1833 | inactive |
| AURKC (GeneID 6795) | SID152150186 | 0.952 | 1.4 | not a hit in A549 | not a hit in 1833 | inactive |
| CLK3 (GeneID 1198) | SID56478875 | 2.4 | 2.44 | not a hit in A549 | not a hit in 1833 | inactive |
| BRD4 (GeneID 23476) | SID152154839 | 3.72 | 28.3 | not a hit in A549 | hit in 1833 | – |
| MAP4K2 (GeneID 5871) | SID56478700 | 5.1 | 4.29 | not a hit in A549 | not a hit in 1833 | inactive |
